PubChem BioAssay AID1259308 | NCATS | 2017

Screen: 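Knock-downs that increase output of a recombinant reporter protein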 (primary screen)
Cells: human HEK293 embryonic kidney cells stably expressing firefly luciferase (HEK-CMV-Luc2-Hygro)
Reagents: single siRNA against human genes, 0.8 pmol siRNA per well
Timing: 72 h
Measured: 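Luciferase light (ONE-Glo) measured on one replicate plate set and viability (CellTiter-Glo) on the other, scaled to a negative control siRNA, with robust z-scores and luciferase per cell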
Direction: total luciferase, z-score and total luciferase, % of control: higher = more reporter protein produced; luciferase per cell, z-score: higher = more reporter output per viable cell; viable cells, % of control: higher = more viable cells
Hit rule: 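Active when the median/MAD z-score for overall luciferase is greater than 3; a gene was taken forward for validation with new siRNAs if at least two of its three siRNAs passed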
Calls: active = raised luciferase; inactive = no rise
This is a random part of about 59,000 reagents tested. Of all reagents, about 1,510 (2.6%) are marked active. 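Calls use total luciferase alone and ignore viability, so some active siRNAs may act by altering cell number.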 Unmarked entries are inactive. The numbers tell different reagents against one gene apart.

gene | reagent no. | total luciferase, z-score | total luciferase, % of control | luciferase per cell, z-score | viable cells, % of control
KHSRP | 1 | 1.5 | 112 | 1.52 | 83.6
KHSRP | 2 | -0.991 | 62.2 | -1.76 | 111
KHSRP | 3 | 1.57 | 113 | 0.447 | 112
MOGS | 1 | -0.648 | 69 | -1.12 | 104
MOGS | 2 | 0.911 | 100 | 0.641 | 94.4
MOGS | 3 | 0.47 | 91.2 | 0.583 | 87.4
EXOSC8 | 1 | 1.41 | 110 | 1.84 | 75.6
EXOSC8 | 2 | 0.633 | 94.5 | 0.121 | 102
EXOSC8 | 3 | 0.00394 | 82 | 2.08 | 53
CHERP | 1 | 4.37 (active) | 169 | 3.54 | 74.2
CHERP | 2 | 2.96 | 141 | 2.9 | 73.3
CHERP | 3 | -0.0563 | 80.8 | -0.227 | 95.8
GEMIN5 | 1 | -0.525 | 71.5 | -0.0966 | 81.9
GEMIN5 | 2 | -0.5 | 71.9 | -0.569 | 93.4
GEMIN5 | 3 | 4.07 (active) | 163 | 3.36 | 75.2
OBI1 | 1 | -0.596 | 70 | -0.71 | 94.3
OBI1 | 2 | 0.457 | 91 | 0.624 | 86.3
OBI1 | 3 | 0.55 | 92.8 | 0.308 | 95.6
PTPN18 | 1 | -0.557 | 70.8 | -1.09 | 106
PTPN18 | 2 | 1.02 | 102 | 1.43 | 78.4
PTPN18 | 3 | 2.28 | 127 | 0.474 | 126
G3BP1 | 1 | 0.0888 | 83.7 | -0.666 | 111
G3BP1 | 2 | 2.9 | 140 | 3.73 | 58.4
G3BP1 | 3 | 3.8 (active) | 157 | 1.84 | 108
ADAT3 | 1 | -0.557 | 70.8 | -0.822 | 98.3
ADAT3 | 2 | 0.233 | 86.5 | 0.0417 | 95.6
ADAT3 | 3 | -0.053 | 80.8 | -0.838 | 113
ASCL5 | 1 | 0.0521 | 82.9 | 0.299 | 85.6
ASCL5 | 2 | 0.82 | 98.2 | 0.0429 | 108
ASCL5 | 3 | 0.0702 | 83.3 | 0.369 | 84.4
ASCL5 | 4 | 0.121 | 84.3 | -0.257 | 101
ASCL5 | 5 | -1.89 | 44.2 | 0.0925 | 48.2
ASCL5 | 6 | -0.357 | 74.8 | 1.28 | 59.7
GTF2IRD2 | 1 | 0.331 | 88.5 | 0.0515 | 97.5
GTF2IRD2 | 2 | -0.906 | 63.9 | -0.738 | 86.7
GTF2IRD2 | 3 | 3.14 (active) | 144 | 2.45 | 84.5
GGT1 | 1 | -0.101 | 79.9 | -0.0156 | 89.6
GGT1 | 2 | -2.12 | 39.8 | -2.33 | 82.2
GGT1 | 3 | 5.19 (active) | 185 | 3.28 | 87.2
UBA7 | 1 | 0.581 | 93.4 | 1.04 | 79.5
UBA7 | 2 | 0.711 | 96 | 0.396 | 96.7
UBA7 | 3 | 0.163 | 85.1 | -0.197 | 100
DNAAF10 | 1 | 0.906 | 99.9 | 0.636 | 94.4
DNAAF10 | 2 | -0.482 | 72.3 | -0.0436 | 81.7
DNAAF10 | 3 | -0.501 | 71.9 | -0.696 | 96.5
METRN | 1 | 1.75 | 117 | 0.642 | 110
METRN | 2 | -0.794 | 66.1 | -0.712 | 89.1
METRN | 3 | -1.05 | 61 | -1.25 | 94.6
IRF2BPL | 1 | 0.252 | 86.9 | 0.139 | 93.6
IRF2BPL | 2 | -0.845 | 65.1 | -1.07 | 96.4
IRF2BPL | 3 | -0.197 | 78 | 0.0918 | 85
CARD10 | 1 | -0.514 | 71.7 | -0.503 | 91.4
CARD10 | 2 | -0.0758 | 80.4 | 0.314 | 82.7
CARD10 | 3 | 1.73 | 116 | 1.67 | 83.6
COL10A1 | 1 | -0.323 | 75.5 | -0.132 | 87.3
COL10A1 | 2 | 0.454 | 90.9 | 0.417 | 91
COL10A1 | 3 | 0.0585 | 83.1 | 0.266 | 86.5
MTREX | 1 | -0.731 | 67.3 | -0.186 | 79
MTREX | 2 | -0.835 | 65.3 | -0.823 | 90.6
MTREX | 3 | -1.04 | 61.2 | -1.02 | 89.6
LOC145845 | 1 | -0.0913 | 80.1 | -0.474 | 101
LOC145845 | 2 | -0.733 | 67.3 | -1.3 | 106
LOC145845 | 3 | 0.836 | 98.5 | 2.28 | 60.4
ADGRB3 | 1 | 0.995 | 102 | 1.28 | 81.2
ADGRB3 | 2 | -1.07 | 60.6 | -1.03 | 88.8
ADGRB3 | 3 | -0.463 | 72.7 | -0.403 | 90.3
GABARAPL1 | 1 | -0.181 | 78.3 | -0.238 | 93.1
GABARAPL1 | 2 | 1.94 | 120 | 1.91 | 81.5
GABARAPL1 | 3 | 2.1 | 124 | 2.29 | 75.6
CATSPERB | 1 | 0.0311 | 82.5 | -0.264 | 98.8
CATSPERB | 2 | -0.594 | 70.1 | -1.01 | 102
CATSPERB | 3 | -1.04 | 61.2 | -0.44 | 76.7
KLF2 | 1 | 0.17 | 85.3 | 2.97 | 43.6
KLF2 | 2 | 0.167 | 85.2 | 1.32 | 67.3
KLF2 | 3 | 0.786 | 97.5 | 1 | 83.7

Reprinted from the listing, 9 entries:
gene | reagent no. | total luciferase, z-score | total luciferase, % of control | luciferase per cell, z-score | viable cells, % of control
ASCL5 | 2 | 0.82 | 98.2 | 0.0429 | 108
ASCL5 | 3 | 0.0702 | 83.3 | 0.369 | 84.4
ASCL5 | 4 | 0.121 | 84.3 | -0.257 | 101
ASCL5 | 5 | -1.89 | 44.2 | 0.0925 | 48.2
ASCL5 | 6 | -0.357 | 74.8 | 1.28 | 59.7
GTF2IRD2 | 1 | 0.331 | 88.5 | 0.0515 | 97.5
GTF2IRD2 | 2 | -0.906 | 63.9 | -0.738 | 86.7
GTF2IRD2 | 3 | 3.14 (active) | 144 | 2.45 | 84.5
GGT1 | 1 | -0.101 | 79.9 | -0.0156 | 89.6
